Reference: PubChem BioAssay AID1259308 (NCATS, 2017)
Here is one part, drawn at random, of about 59,000 deposited reagents. About 1,510 of them (2.6%) were called active. 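Calls use total luciferase alone and ignore viability, so some active siRNAs may act by altering cell number.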 Not all columns of the deposit are shown.

Test: 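Candidate targets for better recombinant protein yield in mammalian cells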 (primary screen)
Cell system: human HEK293 embryonic kidney cells stably expressing firefly luciferase (HEK-CMV-Luc2-Hygro)
Reagent: single siRNA against human genes, 0.8 pmol siRNA per well
Timing: 72 h
Read-out: 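Luciferase light (ONE-Glo) measured on one replicate plate set and viability (CellTiter-Glo) on the other, scaled to a negative control siRNA, with robust z-scores and luciferase per cell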
Scale: total luciferase, z-score: higher = more reporter protein produced
Rule for the call: 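Active when the median/MAD z-score for overall luciferase is greater than 3; a gene was taken forward for validation with new siRNAs if at least two of its three siRNAs passed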
Meaning of the calls: active = raised luciferase; inactive = no rise

total luciferase, z-score, by target gene and reagent
RING1: SID160715911 1.27 inactive; SID160715912 -0.0287 inactive; SID160715913 4.87 active
RYR3: SID160716271 0.235 inactive; SID160716274 0.502 inactive; SID160716275 -0.197 inactive
PHF24: SID160732755 0.037 inactive; SID160736072 -0.373 inactive; SID160736073 0.4 inactive
PCP2: SID160732411 0.201 inactive; SID160732412 -0.843 inactive; SID160756378 0.239 inactive
ORC2: SID160778428 -0.0931 inactive; SID160778429 1.83 inactive; SID160778430 -1.01 inactive
APOBEC3A: SID160760838 -1.3 inactive; SID160760839 -0.824 inactive; SID160760840 0.609 inactive
HVCN1: SID160752171 -1.29 inactive; SID160752173 -0.223 inactive; SID160752174 -0.228 inactive
PIK3R1: SID160714350 0.212 inactive; SID160714351 0.665 inactive; SID160714352 0.802 inactive
NKX1-1: SID160733551 -0.334 inactive; SID160742068 1.98 inactive; SID160742069 0.795 inactive
CDC37L1: SID160744037 -0.503 inactive; SID160744038 -1.41 inactive; SID160744039 -0.151 inactive
GRIK4: SID160731029 2.72 inactive; SID160774409 -0.937 inactive; SID160774416 -0.596 inactive
CBLL2: SID160759659 -1.07 inactive; SID160759660 0.844 inactive; SID160759662 0.67 inactive
INPP5F: SID160732466 -0.487 inactive; SID160732476 1.68 inactive; SID160732486 -0.841 inactive
MCM4: SID160777054 0.664 inactive; SID160777055 -0.312 inactive; SID160777056 -1.14 inactive
ITPKA: SID160776049 -0.787 inactive; SID160776050 0.131 inactive; SID160776051 0.343 inactive
ITGA9: SID160775974 0.872 inactive; SID160775975 -1.35 inactive; SID160775976 -1.26 inactive
SLC39A6: SID160737001 0.0517 inactive; SID160737003 -1.6 inactive; SID160737004 -1.19 inactive
MLXIP: SID160732492 0.0486 inactive; SID160732501 1.16 inactive; SID160732512 -1.62 inactive
STEAP4: SID160749196 -0.0523 inactive; SID160749197 -0.439 inactive; SID160749198 0.927 inactive
ADRA1A: SID160714923 0.42 inactive; SID160714935 -0.435 inactive; SID160714946 0.416 inactive
DDX54: SID160731906 -1.63 inactive; SID160731907 1.63 inactive; SID160748527 -1.34 inactive
TBC1D22B: SID160743959 1.2 inactive; SID160743960 0.701 inactive; SID160743961 -1.3 inactive
ELP2: SID160743345 0.407 inactive; SID160743346 -0.132 inactive; SID160743347 0.00421 inactive
HOXB7: SID160775209 -0.44 inactive; SID160775210 -1.54 inactive; SID160775211 -0.281 inactive
MAMDC2: SID160762473 -2.24 inactive; SID160762474 0.83 inactive; SID160762475 0.381 inactive
